In patent US9204645B2, “Insecticidal aromatic amides” (BAYER INTELLECTUAL PROPERTY GMBH, priority 2011, dated 2015):
At least one structure is not confirmed: it was looked up by name or label, or the drawing left a doubt. Some entries repeat one wording, which the source may state once for all of them.

What was measured:
Type in all cases: in vivo
[1] = system: larvae of the mustard beetle (Phaedon cochleariae); assay: Phaedon cochleariae spray test (PHAECO)
Description: Phaedon Cochleariae—Spray Test (PHAECO)
(§1) • Solvents: 78.0 parts by weight of acetone • 1.5 parts by weight of dimethylformamide • Emulsifier: 0.5 part by weight of alkylaryl polyglycol ether
(§2) To produce a suitable preparation of active compound, 1 part by weight of active compound is mixed with the stated amounts of solvents and emulsifier, and the concentrate is diluted with emulsifier-containing water to the desired concentration.
After the desired period of time, the effect in % is determined 100% means that all of the beetle larvae have been killed; 0% means that none of the beetle larvae have been killed.

[2] = system: green peach aphid (Myzus persicae); assay: Myzus spray test (MYZUPE)
Description: Myzus—Spray Test (MYZUPE)
as §1, §2
Discs of Chinese cabbage leaves (Brassica pekinensis) infested by all stages of the green peach aphid (Myzus persicae) are sprayed with an active compound preparation of the desired concentration.
After the desired period of time, the effect in % is determined. 100% here means that all of the aphids have been killed; 0% means that no aphids have been killed.

[3] = system: greenhouse red spider mite (Tetranychus urticae); assay: Tetranychus urticae spray test, OP-resistant (TETRUR), bean leaf discs
Description: Tetranychus urticae—Spray Test; OP-resistant (TETRUR)
as §1, §2
Discs of bean leaves (Phaseolus vulgaris) which are infested by all stages of the greenhouse red spider mite (Tetranychus urticae) are sprayed with an active compound preparation of the desired concentration.
After the desired period of time, the effect in % is determined. 100% means that all of the spider mites have been killed; 0% means that none of the spider mites have been killed.

Measured: efficacy compared to similar compounds of the prior art

CCC(=O)NCc1cc(N(C)C(=O)c2c(C(F)(F)F)c(C(F)(F)C(F)(F)F)nn2C)ccc1F [Example 1]
superior efficacy: all assays above
